Experimental data published in PubChem BioAssay AID588590 (National Center for Advancing Translational Sciences (NCATS), 2011).
The campaign covered roughly 390,000 compounds. About 4,000 (1%) were called active. The shares of active, inactive and inconclusive entries below differ from those in the screen. Calls come from the whole dose curve; as a rule, active = well fitted inhibition curve with a large enough effect; inconclusive = small, poorly fitted or top-dose-only effect, or another doubt; inactive = no such curve, though single readings can be large or run the other way. A potency beside an inconclusive call is a rough fit, not a confirmed value.

Protein sequences, listed by entry. Tags and fused reporters are not part of them. Lines headed by an entry give the natural chain unless they say otherwise; changes in a name come on top.
UniProt Q9UNA4: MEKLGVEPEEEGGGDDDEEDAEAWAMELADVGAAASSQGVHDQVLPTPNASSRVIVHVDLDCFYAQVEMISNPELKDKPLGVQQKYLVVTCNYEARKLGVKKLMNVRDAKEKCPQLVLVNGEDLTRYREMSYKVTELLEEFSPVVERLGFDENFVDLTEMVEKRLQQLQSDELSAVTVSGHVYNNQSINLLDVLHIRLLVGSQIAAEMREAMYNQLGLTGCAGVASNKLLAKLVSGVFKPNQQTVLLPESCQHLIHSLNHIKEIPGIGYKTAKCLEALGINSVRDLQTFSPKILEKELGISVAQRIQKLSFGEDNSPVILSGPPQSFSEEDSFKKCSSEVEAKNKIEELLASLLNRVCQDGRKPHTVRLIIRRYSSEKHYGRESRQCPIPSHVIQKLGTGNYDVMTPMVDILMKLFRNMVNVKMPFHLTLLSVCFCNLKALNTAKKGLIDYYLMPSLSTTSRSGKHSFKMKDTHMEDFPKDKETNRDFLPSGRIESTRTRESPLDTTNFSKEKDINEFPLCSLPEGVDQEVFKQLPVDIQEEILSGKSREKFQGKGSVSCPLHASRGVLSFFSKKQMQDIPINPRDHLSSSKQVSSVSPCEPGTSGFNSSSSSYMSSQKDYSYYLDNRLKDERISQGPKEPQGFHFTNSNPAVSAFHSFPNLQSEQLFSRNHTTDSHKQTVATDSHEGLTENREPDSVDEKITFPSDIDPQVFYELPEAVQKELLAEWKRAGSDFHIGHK

These molecules were tested against DNA polymerase iota (Homo sapiens) (UniProt Q9UNA4) (assay: qHTS for Inhibitors of Polymerase Iota). Conditions: Pol iota fluorescent replication assay, 10 min; series mostly up to 115 µM.
Source text: DNA polymerases, such as Pol iota, are specifically involved in DNA repair. Pol iota specifically plays an important role in translesion synthesis, where the normal high-fidelity DNA polymerases cannot proceed and DNA synthesis stalls. […] Thus, while pol eta's (and most likely iota's) normal function is to protect humans against the deleterious consequences of DNA damage, under certain conditions they can have deleterious effects on human health. As a consequence, we propose to utilize a high throughput replication assay to identify small molecule inhibitors of pol iota.
In a collaboration between the National Institute of Child Health & Human Development (NICHD) and NIH Chemical Genomics Center, a high-throughput, fluorescent screen was developed to screen the NIH Molecular Libraries Small Molecule Repository (MLSMR). This screen is used to identify inhibitors of pol iota.
NIH Chemical Genomics Center [NCGC]
NIH Molecular Libraries Probe Centers Network [MLPCN] […]
Three microliters of reagents (buffer in column 3 and 4 as negative control and 10 nM Pol iota in columns 1, 2, and 5-48) will be dispensed into 1,536-well black solid-bottomed plate. […] The plates will then be incubated for 15 min at room temperature, and 1 µL substrate (50 nM final concentration) will be added to start the reaction and kinetically read twice at 0 min and 10 min on the Viewlux reader.
Potency is the fitted concentration of half-maximal effect.

Row | SMILES | Potency
1 | O=C(CSc1ncnc2sccc12)N1CCN(C(=O)c2cccs2)CC1 | inconclusive: 89.1 µM [inhibitor, partial curve, poor fit]
